Data as given in PubChem BioAssay AID1259405 (NCATS, 2018).

Assay: 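Knock-downs that lift recombinant protein yield in hamster ovary cells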 (primary screen)
Cells: Chinese hamster CHO-K1 ovary cells with stable secreted eGFP expression
Reagents: single siRNA against mouse genes, 0.8 pmol siRNA per well (2 µl of 400 nM stock)
Time to read-out: 3 days
Measured: 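Percent of the per-plate non-targeting control median for intracellular GFP per well by laser scanning cytometry and for cell viability by ATP luminescence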
Direction: GFP, % of control: higher = more GFP per well, higher productivity; viability (ATP), % of control: higher = more viable cells (more ATP)
Rule for the call: 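a knock-down is called active if GFP reaches 120% or more of non-targeting control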
Here is an unselected part of about 50,000 reagents. About 4,000 of all reagents (8%) were called active. 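Mouse siRNA library applied to hamster cells; one well for each siRNA.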 Unmarked entries are inactive. Reagents against one gene are numbered here.

no.	target	siRNA no.	GFP, % of control	viability (ATP), % of control
1	Pcdhga12	1	93.2	88.3
2	Pcdhga12	2	63.1	77.5
3	Pcdhga12	3	74.9	76.3
4	Or51q1c	1	109	79.1
5	Or51q1c	2	119	89.9
6	Or51q1c	3	40.1	78.3
7	Il6	1	127 (active)	137
8	Il6	2	107	89
9	P3h4	1	98.1	100
10	P3h4	2	88.1	73.5
11	P3h4	3	66.7	54.9
12	Clec10a	1	70.5	62.7
13	Clec10a	2	70.7	88.7
14	Clec10a	3	62.3	59
15	Apip	1	74.5	56.9
16	Apip	2	92.5	80.3
17	Apip	3	42.8	67.1
18	Pspn	1	54.6	71.9
19	Pspn	2	111	95.1
20	Pspn	3	85.4	72.8
21	Akap3	1	74.7	84.9
22	Akap3	2	98.3	97.7
23	Mtrr	1	90.5	98.8
24	Mtrr	2	50.8	77.7
25	Mtrr	3	45.3	54.1
26	Pitx2	1	65.1	54.9
27	Pitx2	2	83.9	64.6
28	Pitx2	3	83.1	59.3
29	Lamtor1	1	95.7	71.3
30	Lamtor1	2	118	79.8
31	Lamtor1	3	68.9	61.3
32	Kcnk10	1	81.1	107
33	Kcnk10	2	110	77.3
34	Kcnk10	3	84.4	79.7
35	Shmt2	1	128 (active)	86.8
36	Shmt2	2	165 (active)	144
37	Shmt2	3	111	98.8
38	Shmt2	4	113	108
39	Shmt2	5	97.6	83.7
40	Shmt2	6	80.4	93
41	Tex46	1	54.6	59.1
42	Tex46	2	73.6	33.2
43	Tex46	3	56.1	55.3
44	Csn2	1	78.9	72.8
45	Csn2	2	29.5	51.9
46	Csn2	3	88.8	120
47	1700052K11Rik	1	91.7	63.2
48	1700052K11Rik	2	140 (active)	57
49	1700052K11Rik	3	88	95.9
50	Tor1aip1	1	83.6	92.7
51	Tor1aip1	2	81.7	102
52	Tor1aip1	3	73	67
53	Ly6f	1	123 (active)	57.1
54	Ly6f	2	146 (active)	59.3
55	Ly6f	3	48.7	68.5
56	Krt19	1	68.1	69
57	Krt19	2	94.7	75.4
58	Gzmm	1	80.3	73.3
59	Gzmm	2	37.7	30.5
60	Gzmm	3	63.5	69.9
61	Stk11ip	1	118	105
62	Stk11ip	2	26.9	44.9
63	Dnajc17	1	55.3	46.3
64	Dnajc17	2	73.9	96.3
65	Dnajc17	3	59.1	54.4
66	Or5m13b	1	55.8	40.2
67	Or5m13b	2	54.8	84.9
68	Or5m13b	3	62.3	54.2
69	Dcaf11	1	45.6	42.5
70	Dcaf11	2	80.1	60.4
71	Dcaf11	3	50.8	82.5
72	Opalin	1	94.6	97.2
73	Opalin	2	91.6	123
74	Opalin	3	1.3	219
75	Stxbp2	1	150 (active)	87.6
76	Stxbp2	2	69.3	61.2
77	Stxbp2	3	60.2	72.9
78	Epb41l1	1	55.2	70
79	Epb41l1	2	82.1	67.8
80	Epb41l1	3	43.9	60.3
81	Cndp1	1	90	84.4
82	Cndp1	2	75.1	88.5
83	Cndp1	3	151 (active)	158
84	Cndp1	4	74.1	107
85	Cndp1	5	69.6	77.7
86	Cndp1	6	59	83.5
